Experimental data published in PubChem BioAssay AID504444 (National Center for Advancing Translational Sciences (NCATS), 2011).
Values joined by “and” are separate entries in the source; they are usually repeats but may differ in a detail not shown here. Identical values can stand only once. The whole screen tested about 360,000 compounds, of which about 7,500 (2.1%) were called active. This list was built around the results that the source calls inconclusive (neither active nor inactive); the mix of calls is not that of the screen. Calls follow the shape of the dose curve; as a rule, active = well fitted inhibition curve with a large enough effect; inconclusive = small, poorly fitted or top-dose-only effect, or effect the other way; inactive = flat fitted curve, though single readings scatter. A potency beside an inconclusive call is a rough fit, not a confirmed value.

Experiment: Nrf2 qHTS screen for inhibitors; also: nearly all actives have a fitted effect of over 60% in size
Settings: A549 ARE-Fluc reporter, luciferase luminescence, 18-24 h; activity change, negative = inhibition: at 46 µM (top of the series)
Procedure, shortened: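 Reporter: ARE-Fluc in A549. Exposure: 18-24 h, 37 °C, 5% CO2, 5% FBS OPTI-MEM. Readouts: fluorescent cytotoxicity (CellTiter-Fluor), then luminescent Nrf2 signal after BugLite.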
% is scaled to controls: 0 for no effect and ±100 for the full control effect; potency is read from the fitted curve at half-maximal effect.

Structure (SMILES)	Potency	activity change, negative = inhibition
CC(=O)Nc1nc2cc([N+](=O)[O-])ccc2s1	inconclusive: 10.3 µM [falling, partial curve, poor fit]	–
CCOC(=O)c1c(C)[nH]c(C)c1C(=O)COC(=O)[C@@H](NC(=O)c1ccccc1OCC)C(C)C	inconclusive: 29.1 µM [falling, single point]	–
Cc1cc(C(=O)NNC(=S)NC(C)c2ccccc2)c2ccccc2n1 (stereo unspecified)	inconclusive: 18.4 µM [falling, partial curve, poor fit]	–
Cc1ccc(-n2c(-c3ccccc3)c[n+]3c2CCc2ccccc2-3)c(C)c1	active: 4.11 µM	–
O=C(Nc1ccccc1F)N(Cc1ccc(F)cc1)Cc1nc2ccccc2c(=O)[nH]1	–	inactive: -11.5%
Clc1ccc(Cc2nn3c(Cn4nnc5ccccc54)nnc3s2)cc1	inconclusive: 20.6 µM [falling, partial curve, poor fit]	–
O=C(O)CN1C(=O)/C(=C\c2ccccc2OCc2ccc(F)cc2)SC1=S	–	inactive: -8.42%
O=C(COc1ccc(C(=O)c2ccccc2)cc1)Nc1cccnc1	active: 23.1 µM	–
COc1ccc(S(=O)(=O)NCc2ccc(C(=O)N(C)Cc3ccco3)cc2)cc1	inconclusive: 4.11 µM [activator, single point]	–
N#C/C(=C\c1ccc(-c2ccc(C(=O)O)cc2)o1)c1nc2ccccc2[nH]1	inconclusive: 13 µM [activator, partial curve] and inconclusive: 14.6 µM [activator, partial curve]	–
Cc1cc(O)c(C(=O)Nc2cccc(Cl)c2)c(=O)n1C	inconclusive: 0.92 µM [activator, full curve, poor fit]	–
Nc1ccc(C(=O)Nc2ccc3cc(S(=O)(=O)O)ccc3c2)cc1	inconclusive: 16.4 µM [activator, partial curve]	–
COc1ccc(NS(=O)(=O)c2ccc(C)c(C(=O)N3CCN(Cc4cc(OC)ccc4OC)CC3)c2)cc1	–	inactive: -20.5%
Cc1cc2oc(C(=O)Nc3c(C)n(C)n(-c4ccccc4)c3=O)cc(=O)c2cc1C	–	inactive: 10.3%
Cc1ccc(C(O)(COC(=O)C(C)C)COC(=O)C(C)C)c(O)c1	–	inactive: 0.356%
Nc1nonc1-n1nnc(C(=O)N/N=C/c2c(Cl)cccc2Cl)c1CSC1=NCCS1	inconclusive: 29.1 µM [falling, single point]	–
Cc1nn(C(C)(C)C)c(OC(=O)c2c(F)cccc2F)c1Sc1ccccc1	–	inactive: 6.09% [at 9.27 µM]
CN(CC(=O)Nc1ccc(F)cc1)C(=O)COC(=O)c1cccc(N(C)C)c1	inconclusive: 18.4 µM [activator, partial curve, poor fit]	–
COc1ccc(NC(=O)CN(c2ccc(C)cc2)S(=O)(=O)c2cccs2)cc1	–	inactive: 20.6%
CCn1c(CSCc2ccc(C)cc2)nnc1SCC(=O)N1CCN(c2ccccc2)CC1	active: 20.6 µM	–
CCc1ccc(NC(=O)CCc2nnc3ccc(N4CCCC4)nn23)cc1	–	inactive: 2.47%
CCOC(=O)C1=C(CC)Nc2ccccc2N=C1NC(=O)c1oc2ccccc2c1C	inconclusive: 29.1 µM [falling, single point]	–

Structure (SMILES)	Potency	activity change, negative = inhibition
COc1ccc(Cl)cc1NC(=O)CN(C)CC(=O)Nc1ccc2c(c1)OCO2	–	inactive: -16%
COc1ccc(NC(=O)/C(N=Nc2cccc(S(=O)(=O)Nc3ccc(SC(F)F)cc3)c2)=C(\C)O)cc1	–	inactive: -4.71%
CCN(CC(=O)Nc1c(F)cccc1F)C(=O)CNC(=O)c1cccc(C)c1	–	inactive: 4.23%
CN(C)S(=O)(=O)c1cccc(CSCc2cccc(S(=O)(=O)N(C)C)c2)c1	active: 6.51 µM	–
Cc1ccc(S(=O)(=O)Nc2ccc3c(c2)CC(=O)N([C@H](C)CO)C[C@@H](C)[C@H](CN(C)S(=O)(=O)c2ccccc2)O3)cc1	–	inactive: -14.9%
CCOc1cc(CNc2ccc3c(c2)OCCO3)cc(Br)c1OC	–	inactive: 25.4%
O=C(Nc1ccc(S(=O)(=O)N(Cc2ccccc2)c2ccccc2)cc1)c1ccc(F)cc1	active: 23.1 µM	–
CC1(C)CC(=O)N(Cc2ccccc2)C(=O)C1	–	inactive: 24%
CN(C)/C=N/c1ncc(C(=O)c2ccc3ccccc3c2)s1	inconclusive: 29.1 µM [falling, single point]	–
O=C(c1cc2nc(-c3ccc(F)cc3)cc(C(F)(F)F)n2n1)N1CCCCC1c1cccnc1 (stereo unspecified)	active: 4.61 µM	–
CC1(C)Cc2cccc(OCC(=O)Nc3ccccc3C(F)(F)F)c2O1	inconclusive: 29.1 µM [falling, single point]	–
C/C(=N\NC(=O)C1CC1)c1ccc2c(c1)OCCO2	inconclusive: 16.4 µM [activator, partial curve, poor fit]	–
COc1cc2c3nnc(-c4ccccc4)c-3cn(Cc3ccc(F)cc3)c2cc1OC	–	inactive: 5.52%
Cc1ccc(C(C)C)cc1NC(=O)Nc1ccc([N+](=O)[O-])cc1	active: 20.6 µM	–
CC(=O)N(CCc1cccc(C)c1)Cc1cc2cc(C)ccc2[nH]c1=O	inconclusive: 32.6 µM [falling, partial curve, poor fit]	–
CN(C1CCCCC1)S(=O)(=O)c1ccc(NC(=O)c2ccc(Br)o2)cc1	inconclusive: 29.1 µM [falling, single point]	–
Cc1onc(-c2ccc(Cl)cc2Cl)c1-c1csc(N/N=C/c2ccccc2Cl)n1	inconclusive: 9.2 µM [activator, partial curve]	–
CCCOc1ccc(-c2cnc(N)s2)cc1	inconclusive: 8.2 µM [activator, partial curve]	–
O=C(Oc1ccc(/C=N/NC(=O)c2ccccn2)cc1)c1cccc(Br)c1	inconclusive: 2.06 µM [activator, partial curve]	–
CC(=O)CCc1c(C)[nH]c2ccccc2c1=O	inconclusive: 4.61 µM [falling, single point]	–
O=C(c1cc([N+](=O)[O-])cc([N+](=O)[O-])c1)N(c1ccccn1)c1ccccn1	inconclusive: 1.16 µM [falling, full curve, poor fit]	–
CC(=O)Nc1ccc(S(=O)(=O)N2CCN(S(=O)(=O)c3c(F)cccc3F)CC2)cc1	–	inactive: 2.85%

Structure (SMILES)	Potency	activity change, negative = inhibition
COc1ccc(N2CCN(S(=O)(=O)c3ccc(OC)c(C(=O)N4CCCCC4)c3)CC2)cc1	inconclusive: 20.6 µM [falling, single point]	–
O=C(Nc1ccncc1)c1ccc(S(=O)(=O)Nc2ccccc2)cc1	inconclusive: 13 µM [falling, partial curve]	–
O=C(c1ccccc1)n1c(=S)nc2ccccn21	inconclusive: 0.82 µM [activator, full curve]	–
C=CCNCc1cc(=O)n2c(-c3ccccc3)csc2n1	inconclusive: 29.1 µM [activator, single point]	–
Cc1cc(NC(=O)c2cccs2)ncc1NC(=O)C(C)C	inconclusive: 5.17 µM [activator, full curve]	–
O=C(CSc1ccc(Br)cc1)Nc1ccccc1N1CCOCC1	inconclusive: 10.3 µM [falling, partial curve, poor fit]	–
Cc1cccc(-c2cc3nc4c(c(N5CCOCC5)n3n2)CCCC4)c1	inconclusive: 0.58 µM [activator, full curve, poor fit]	–
COc1ccc(CCNc2nc3c(c(=O)n(C)c(=O)n3C)n2Cc2ccccc2Cl)cc1OC	inconclusive: 23.1 µM [falling, single point]	–
Cn1c(SC(C(=O)Nc2ccc(F)cc2)c2ccccc2)nc2ccccc21 (stereo unspecified)	–	inactive: -38.1%
COc1ccc2nc(-c3ccccc3)cc(C(=O)OCC(=O)N3CCCCC3)c2c1	inconclusive: 29.1 µM [falling, single point]	–
O=C(CSc1nnc(-c2ccc(Cl)cc2)n1Cc1ccco1)Nc1ccc2c(c1)OCCO2	inconclusive: 23.1 µM [falling, partial curve, poor fit]	–
CC(C)(C)c1ccc(C(=O)CC(=O)c2cc(Cl)ccc2O)cc1	inconclusive: 23.1 µM [falling, single point]	–
CCOC(=O)C1=C(N)n2c(s/c(=C\c3ccco3)c2=O)=C(C(=O)OC(C)C)C1c1ccco1 (stereo unspecified)	inconclusive: 13 µM [falling, partial curve, poor fit]	–
O=C(Cn1cc(S(=O)(=O)Cc2ccccc2F)c2ccccc21)NCc1ccccc1	inconclusive: 29.1 µM [activator, single point]	–
O=C(CSc1ncn[nH]1)NCCc1ccc(Cl)cc1	inconclusive: 6.51 µM [falling, partial curve, poor fit]	–
Nc1nc2ccc(Cc3ccncc3)cc2s1	inconclusive: 4.11 µM [activator, full curve]	–
Cc1ccc(-c2csc(/C(C#N)=C(\O)CN3CCN(C(=O)c4ccco4)CC3)n2)cc1	inconclusive: 5.17 µM [falling, single point]	–
COc1cccc(N2CCN(C(=O)c3cc(-c4ccccc4)nc4c3cnn4C(C)C)CC2)c1	inconclusive: 25.9 µM [falling, single point]	–
Cc1cccn2c(Nc3ccccc3)c(-c3ccccn3)nc12	–	inactive: -4.2%
O=C(c1ccc(Br)s1)N1CCN(c2ccccn2)CC1	inconclusive: 0.0259 µM [activator, full curve, poor fit]	–
CC1(C)C(/C=C/C=C/C=C/C=C2\N(CCCCS(=O)(=O)O)c3ccc4ccccc4c3C2(C)C)=[N+](CCCCS(=O)(=O)[O-])c2ccc3ccccc3c21	inconclusive: 23.1 µM [falling, partial curve, poor fit]	–
Cc1cc2oc3ccc(NCCCN4CCOCC4)cc3c(=O)c2cc1C	inconclusive: 5.8 µM [activator, full curve, poor fit]	–
